# Assay results from PubChem BioAssay AID720504 (National Center for Advancing Translational Sciences (NCATS), 2013).
# The chains behind the UniProt entries cited, without tags or fusion partners.
# UniProt P53350, whole entry, looked up: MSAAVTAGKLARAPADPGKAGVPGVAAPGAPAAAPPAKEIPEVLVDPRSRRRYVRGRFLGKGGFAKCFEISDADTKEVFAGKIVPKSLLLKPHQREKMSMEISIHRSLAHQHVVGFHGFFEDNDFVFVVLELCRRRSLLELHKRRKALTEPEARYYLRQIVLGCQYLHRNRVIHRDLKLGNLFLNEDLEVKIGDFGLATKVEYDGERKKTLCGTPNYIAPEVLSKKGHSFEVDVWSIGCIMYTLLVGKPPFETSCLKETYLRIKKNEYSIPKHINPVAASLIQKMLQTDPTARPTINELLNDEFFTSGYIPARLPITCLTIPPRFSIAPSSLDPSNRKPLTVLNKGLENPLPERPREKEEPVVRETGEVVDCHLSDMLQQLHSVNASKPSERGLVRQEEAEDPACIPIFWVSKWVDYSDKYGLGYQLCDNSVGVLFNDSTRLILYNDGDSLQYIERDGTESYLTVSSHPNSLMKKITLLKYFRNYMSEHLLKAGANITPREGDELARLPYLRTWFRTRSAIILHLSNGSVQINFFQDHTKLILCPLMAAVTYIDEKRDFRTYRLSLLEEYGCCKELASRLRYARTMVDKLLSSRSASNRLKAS
# The whole screen tested about 360,000 compounds, of which about 10,000 (2.8%) were called active. Inconclusive means that the source gave no clear call. Such entries were picked first, then a sample of the others. Calls come from the whole dose curve; as a rule, active = well fitted inhibition curve with a large enough effect; inconclusive = small, poorly fitted or top-dose-only effect; inactive = flat fitted curve, though single readings scatter. Potencies of inconclusive entries are doubtful fits and often do not repeat.
# Target: Serine/threonine-protein kinase PLK1 (Homo sapiens) (UniProt P53350)
# Test: qHTS for Inhibitors of PLK1-PDB (polo-like kinase 1 - polo-box domain): Primary Screen; note: nearly all actives have a fitted effect of over 65% in size; for max response, negative = inhibition: series mostly up to about 57 µM
# Settings: Plk1 PBD binding of FITC phosphopeptide, fluorescence polarization
# % is set by controls: 0 for no effect and ±100 for the full control effect; potency is the fitted concentration of half-maximal effect.
Compound,Potency,"max response, negative = inhibition"
O=C(Nc1ccccc1)N1N=CCC1c1ccccc1 (stereo not given),"inconclusive: 26.7 µM [inhibitor, single point]",
COc1cc(NC(=S)N2CCCC(CO)C2)c(OC)cc1Cl (stereo not given),"inconclusive: 26.7 µM [inhibitor, partial curve]",
CCC(C)c1ccccc1NC(=O)COC(=O)c1ccc(C)c(NC(=O)c2ccco2)c1 (stereo not given),,inactive: -2.11%
COC(=O)[C@H](Cc1ccccc1)NC(=O)c1cc(COc2c(F)cccc2F)on1,active: 29.9 µM,
CCCC(=O)Nc1cc(OC)c(NC(=S)Nc2ccc(CC)cc2)cc1OC,,inactive: -12.5%
CCOc1ncccc1C(=O)Nc1cc(S(=O)(=O)N(CC)CC)ccc1N1CCOCC1,active: 16.8 µM,
N#C/C(=C\c1cc([N+](=O)[O-])ccc1Cl)C(N)=O,"inconclusive: 26.7 µM [inhibitor, partial curve, poor fit]",
COC(=O)c1nccnc1N,,inactive: -6.31%
O=C(Oc1cccc(C(=S)N2CCOCC2)c1)c1cc([N+](=O)[O-])cc([N+](=O)[O-])c1,"inconclusive: 21.2 µM [inhibitor, partial curve]",
COc1ccc(C2CC2/C(=N/O)c2ccccc2)cc1 (stereo not given),active: 13.4 µM,
Cc1ccc(N/N=C(\Cc2nc3ccccc3[nH]2)c2ccccc2)cc1,,inconclusive: -30.8% [inhibitor]
CCCC(=O)Nc1ccc2c(c1)nc1n2CCN(C2CCCCC2)C1,,inconclusive: -32.5% [inhibitor]
C/C=C/CSc1nc2c(c(=O)[nH]c(=O)n2C)n1Cc1ccc(C)cc1,"inconclusive: 26.7 µM [inhibitor, partial curve]",
COc1ccc(NC(=O)CN(C)C(=O)c2cccc(-n3cccc3)c2)cc1,"inconclusive: 23.8 µM [inhibitor, single point]",
CC(C)Cn1c(-c2ccc(Br)cc2)c[nH]c1=S,active: 16.8 µM,
CCOc1ccccc1C(O)C1=CC(=O)c2ccccc2C1=O (stereo not given),"inconclusive: 26.7 µM [inhibitor, single point]",
N#CCCN(CCC#N)C(=O)C1c2ccccc2Oc2ccccc21,"inconclusive: 26.7 µM [inhibitor, partial curve]",
CC(O)c1cc2c(cc1NC(=O)c1cnn3c1NC(c1ccco1)CC3C(F)(F)F)OCO2 (stereo not given),,inactive: -5.54%
O=C(CSc1ccccc1)NC1CCCCCCC1,"inconclusive: 18.9 µM [inhibitor, partial curve]",
CCc1ccccc1NC1=NCC(=O)N1Cc1ccc2c(c1)OCO2,active: 29.9 µM,
CCc1ccc2oc(C(=O)NCCc3ccc(S(N)(=O)=O)cc3)cc(=O)c2c1,"inconclusive: 29.9 µM [inhibitor, single point]",
CN(Cc1ccco1)S(=O)(=O)c1ccc(CN2C(=O)c3cccnc3C2=O)s1,active: 26.7 µM,
CN=C1C([N+](=O)[O-])=CC=C2C1=NC1(CCCCC1)N2O,,inactive: -4.56%
CC(C)n1c(SCCCc2ccccc2)nc2c1c(=O)[nH]c(=O)n2C,active: 9.47 µM,
Cc1ccc2c(c1)C(C)(C)[C@]1(C)NC(=O)CCN21,,inactive: -4.99%

# Some of the entries so far, as tab-separated lines.
Compound	Potency	max response, negative = inhibition
O=C(Nc1ccccc1)N1N=CCC1c1ccccc1 (stereo not given)	inconclusive: 26.7 µM [inhibitor, single point]	
COc1cc(NC(=S)N2CCCC(CO)C2)c(OC)cc1Cl (stereo not given)	inconclusive: 26.7 µM [inhibitor, partial curve]	

# Sorted by SMILES length (falling): part of the list above.
Compound,Potency,"max response, negative = inhibition"
O=C(Oc1cccc(C(=S)N2CCOCC2)c1)c1cc([N+](=O)[O-])cc([N+](=O)[O-])c1,"inconclusive: 21.2 µM [inhibitor, partial curve]",
CCC(C)c1ccccc1NC(=O)COC(=O)c1ccc(C)c(NC(=O)c2ccco2)c1 (stereo not given),,inactive: -2.11%
CN(Cc1ccco1)S(=O)(=O)c1ccc(CN2C(=O)c3cccnc3C2=O)s1,active: 26.7 µM,

# (further entries)

Compound,Potency,"max response, negative = inhibition"
O=c1c2c3c(sc2nc2n1CCCCC2)CCCC3,active: 26.7 µM,
CCOC(=O)c1ccc(S(=O)(=O)Nc2nc3cc(S(=O)(=O)NC4=NCCCCC4)ccc3s2)cc1,active: 23.8 µM,
COc1ccc(NC(=O)Nc2ccc3c(c2)N(C)C(=O)CS3)cc1OC,"inconclusive: 26.7 µM [inhibitor, single point]",
COc1ccc(/C(C)=N/NC(=S)NCCc2ccccc2)c(O)c1,,inactive: 2.25%
CSc1ccc(/C=N/NC(=O)CN2CCN(Cc3ccc(Cl)cc3)CC2)cc1,"inconclusive: 37.7 µM [inhibitor, single point]",
O=C(O)CSc1c2c(nc3cc(C(=O)Nc4cccc(C(F)(F)F)c4)ccc13)CCC2,"inconclusive: 33.6 µM [inhibitor, single point]",
CCOC(=O)C1=C(C)N=c2s/c(=C\c3cccc(OCC(=O)O)c3)c(=O)n2C1c1ccccc1 (stereo not given),"inconclusive: 33.6 µM [inhibitor, single point]",
N#Cc1c(NC(=O)CSc2nnc(-c3ccco3)n2-c2ccccc2)sc2c1CCC2,active: 16.8 µM,
CC(C)CN(C(=O)COC(=O)CCSc1ccc(Cl)cc1)c1c(N)n(Cc2ccccc2)c(=O)[nH]c1=O,,inconclusive: -31.3% [inhibitor]
Clc1ccc(CSc2ncnc3nc[nH]c23)cc1,,inactive: -4.58%
CC[n+]1ccc(C)c2cc(P(=O)(c3ccccc3)c3ccccc3)ccc21,"inconclusive: 37.7 µM [inhibitor, single point]",
CCCCn1c(=NC(=O)c2cccnc2)c(C(=O)OCC)cc2c(=O)n3ccccc3nc21,"inconclusive: 21.2 µM [inhibitor, partial curve]",
CC1CCCC(NC(=O)CN(C)S(=O)(=O)c2cnc[nH]2)C1C (stereo not given),,inactive: -7.86%
CSc1nc(N(CCO)CCO)c2sc3nc(-c4ccco4)c4c(c3c2n1)CCC4,"inconclusive: 3.36 µM [inhibitor, full curve]",
CC(=O)c1cc2c(O)c(O)ccc2o1,,inactive: -5.06%
Cc1ccc(NC(=O)CSc2nnc(/N=C/N(C)C)s2)cc1,"inconclusive: 37.7 µM [inhibitor, single point]",
CC(=O)N1c2ccc(S(=O)(=O)N(C)CC(=O)NCc3ccccc3)cc2CC1C (stereo not given),,inconclusive: -34.7% [inhibitor]
Cc1nn(C)c(C)c1S(=O)(=O)NC1CCCc2ccccc21 (stereo not given),"inconclusive: 29.9 µM [inhibitor, partial curve]",
CCOc1ccccc1NC(=O)COC(=O)COc1c(Cl)cc(Cl)c2ccc(C)nc12,,inactive: 1.16%
Cc1ccc(NC2=C(Cl)C(=O)OC2OC(=O)c2ccccc2)c(C)c1 (stereo not given),,inactive: -7.37%
CC(=O)Nc1nc(C=C(Cl)Cl)cs1,"inconclusive: 29.9 µM [inhibitor, partial curve]",
O=C(Cc1ccc(F)cc1)Nc1nc(-c2ccc(F)c(F)c2)cs1,,inactive: -22.6%
CC(C)(C)n1nnnc1C(c1cccnc1)N1CCN(C2CCCCC2)CC1 (stereo not given),,inactive: 3.75%
CN1c2ccsc2/C(=N/Nc2ccccc2)CS1(=O)=O,"inconclusive: 29.9 µM [inhibitor, partial curve]",

Compound,Potency,"max response, negative = inhibition"
CCOc1cc(CNc2ccc3c(c2)CCC3)ccc1O,"inconclusive: 26.7 µM [inhibitor, partial curve]",
Cc1ccc(C(=O)Nc2sc(C)c(-c3ccccc3)c2C(N)=O)cc1[N+](=O)[O-],active: 18.9 µM,
CNC(=O)c1ccc(NC(=O)CN2c3cccc4cccc(c34)S2(=O)=O)cc1,,inactive: -10.2%
Cc1ccccc1NC(=O)c1cccc2c1C(=O)N(C1CCCCC1)C2,,inactive: -7.47%
CC(C)c1ccc(NC(=O)COC(=O)Cn2cnc3c2c(=O)n(C)c(=O)n3C)cc1,,inactive: -0.0114%
COC(=O)c1cc(NC(=O)c2nccnc2C(=O)O)cc(C(=O)OC)c1,,inactive: -4.5%
CNC(=S)NC12CC3CC(CC(C3)C1)C2,,inactive: -7.98%
Cc1ccc(NC(=O)CN2C(=O)N/C(=C/c3ccccc3OCc3cccc(C(=O)O)c3)C2=O)cc1,"inconclusive: 23.8 µM [inhibitor, single point]",
CC(=O)c1cc(F)c(N2CCN(C(=O)COc3ccccc3F)CC2)cc1C,"inconclusive: 37.7 µM [inhibitor, single point]",
COc1ccccc1-c1nc(SCC(=O)Nc2ccccc2)n[nH]1,,inactive: -0.207%
Cc1ccc(C)c(NC(=O)CCC(=O)N/N=C/c2ccc3c(c2)OCO3)c1,active: 16.8 µM,
COc1ccccc1-c1cnc(C(O)c2ccc(Cl)cc2C)[nH]1 (stereo not given),,inactive: -8.11%
CC1=NN2C(=N)/C(=C\c3cc(C)n(-c4cccc(C)c4)c3C)C(=O)N=C2S1,"inconclusive: 37.7 µM [inhibitor, single point]",
CC(C)c1nc2ccc(Br)cn2c1NC1CCCC1,,inactive: -5.73%
CC(=O)N1N=C(N)SC1(C)C,"inconclusive: 26.7 µM [inhibitor, single point]",
N#CCCN(C(=O)COC(=O)c1ccc2c(=O)n3c(nc2c1)CCC3)c1ccccc1,"inconclusive: 37.7 µM [inhibitor, single point]",
CO/N=C\Cc1oc(=O)c(NC(=O)c2ccccc2)cc1C(=O)OC,"inconclusive: 23.8 µM [inhibitor, partial curve]",
Cc1ccc(OC(=S)Nc2ccc(F)cc2)cc1,"inconclusive: 26.7 µM [inhibitor, partial curve]",
Cc1cc(SCC(=O)N/N=C/c2ccc(O)c(O)c2O)c(C)cc1Br,active: 5.97 µM,
CC(C)Cc1csc(NC(=O)c2ccc(Cl)cc2)c1C(=O)O,"inconclusive: 21.2 µM [inhibitor, single point]",
CC(C)N(Cc1ccccc1)C(=S)NCCN1CCOCC1,"inconclusive: 23.8 µM [inhibitor, partial curve]",
CCOC=C1SC(=S)N(c2ccccc2OC)C1=O,"inconclusive: 26.7 µM [inhibitor, single point]",
CCCCC1=CC2=CC(=O)C(C)(OC(=O)CC)C(=O)C2=CN1Cc1ccccc1 (stereo not given),,inactive: -9.34%
Oc1cc(CNC2CCCCC2)c(O)cc1CNC1CCCCC1,active: 5.32 µM,
O=C(Oc1ccc2c3c(c(=O)oc2c1)CCCC3)c1ccco1,active: 23.8 µM,
